In PMC5443838, “Peripherin-2 and Rom-1 have opposing effects on rod outer segment targeting of retinitis pigmentosa-linked peripherin-2 mutants” (Scientific Reports, 2017):
Results are given in words; binding and its absence hold for the method and conditions named. For part of these data: Binding seen in cells or lysates may run through a third protein. Some binding calls cover weakened binding; strength is not graded here. Tags and fused reporters may be left off the sequences shown. Blank lines part the entries; values can stand above or below the binder they belong to.

Chains of the proteins cited; added tags and fusions are not shown.
UniProt Q03395: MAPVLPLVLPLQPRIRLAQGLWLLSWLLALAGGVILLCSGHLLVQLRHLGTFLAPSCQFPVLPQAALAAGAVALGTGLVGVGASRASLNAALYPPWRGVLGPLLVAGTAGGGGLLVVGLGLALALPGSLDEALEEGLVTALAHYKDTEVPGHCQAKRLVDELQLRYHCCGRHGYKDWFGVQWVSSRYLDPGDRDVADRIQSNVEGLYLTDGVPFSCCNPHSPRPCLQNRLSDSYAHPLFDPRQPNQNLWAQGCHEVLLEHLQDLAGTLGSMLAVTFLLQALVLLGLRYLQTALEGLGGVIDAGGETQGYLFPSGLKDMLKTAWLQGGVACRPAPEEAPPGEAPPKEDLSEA

Assays:
[1] = molecular target: T1, C-terminally myc-tagged per^WT (wild type peripherin-2) (human) (UniProt P23942); assay: co-IP; membrane preparations of co-transfected HEK293T cells harvested 48 h post transfection; anti-myc antibody (9B11) on Protein G magnetic beads; citrine-tagged partner detected with anti-GFP
T1 sequence: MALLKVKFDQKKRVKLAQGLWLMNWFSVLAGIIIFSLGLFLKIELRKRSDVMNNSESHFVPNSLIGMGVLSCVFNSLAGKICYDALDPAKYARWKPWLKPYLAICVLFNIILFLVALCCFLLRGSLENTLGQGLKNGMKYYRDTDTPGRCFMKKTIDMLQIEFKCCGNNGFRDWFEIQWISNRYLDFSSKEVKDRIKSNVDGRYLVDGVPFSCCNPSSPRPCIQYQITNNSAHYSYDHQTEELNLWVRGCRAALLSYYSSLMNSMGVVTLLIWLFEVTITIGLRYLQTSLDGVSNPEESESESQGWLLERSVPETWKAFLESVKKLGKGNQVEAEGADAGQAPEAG

[2] = molecular target: C-terminally myc-tagged Rom-1 (human) (UniProt Q03395); assay: as above
[3] = molecular target: T2, N-terminally cerulean-tagged per^WT expressed in mouse rods (human) (UniProt P23942); assay: FRET or BRET; 3 cube FRET on single rod OS isolated four weeks after subretinal co-injection of rAAVs into wild type mice (six pooled retinas for each FRET pair); FRET imaging solution pH 7.4, RT
T2 sequence: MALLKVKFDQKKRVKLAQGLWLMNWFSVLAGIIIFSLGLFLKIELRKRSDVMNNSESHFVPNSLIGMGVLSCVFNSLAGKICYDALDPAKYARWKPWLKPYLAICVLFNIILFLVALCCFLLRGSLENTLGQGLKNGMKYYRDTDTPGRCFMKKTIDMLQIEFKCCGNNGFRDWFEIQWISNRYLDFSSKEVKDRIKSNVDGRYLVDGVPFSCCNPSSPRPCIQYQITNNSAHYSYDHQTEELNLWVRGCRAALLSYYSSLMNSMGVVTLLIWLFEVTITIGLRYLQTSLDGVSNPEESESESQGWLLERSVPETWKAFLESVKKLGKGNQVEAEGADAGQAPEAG

[4] = molecular target: T1, C-terminally myc-tagged per^WT (wild type peripherin-2) (human); assay: co-IP; peptide competition assay: membrane preparations of HEK293T cells co-transfected with myc- and citrine-tagged per^WT, with 10 mM peptide or peptide-free, incubated with myc-antibody-coupled magnetic beads 30 min at room temperature
[5] = molecular target: T3, C-terminally myc- or flag-tagged per^WT (SDGC construct) (human) (UniProt P23942); assay: sucrose density gradient centrifugation; lysate of transfected HEK293T cells (0.5% Triton X-100, 150 mM NaCl, 2 mM CaCl2) on a 5-20% sucrose gradient with 0.1% Triton X-100 and 10 mM N-ethylmaleimide, 46,700 rpm, 2 h, 4 °C; 11 fractions immunoblotted with myc- or flag-specific antibodies under non-reducing conditions; DNA standards for size
T3 sequence: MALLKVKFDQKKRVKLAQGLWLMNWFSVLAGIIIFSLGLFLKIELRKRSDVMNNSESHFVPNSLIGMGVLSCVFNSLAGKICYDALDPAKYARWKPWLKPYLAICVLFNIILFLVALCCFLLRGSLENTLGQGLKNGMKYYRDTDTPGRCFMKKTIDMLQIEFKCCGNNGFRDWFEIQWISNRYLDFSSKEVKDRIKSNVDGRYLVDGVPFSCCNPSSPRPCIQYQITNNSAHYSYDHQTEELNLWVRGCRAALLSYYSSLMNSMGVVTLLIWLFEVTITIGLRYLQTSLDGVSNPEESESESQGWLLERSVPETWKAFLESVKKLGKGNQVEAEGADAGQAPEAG

[6] = molecular target: C-terminally myc- or flag-tagged Rom-1 (SDGC construct) (human) (UniProt Q03395); assay: as above

binding [4]: binds
B3: N-terminally citrine-tagged per^WT (wild type peripherin-2) (protein, UniProt P23942 1-346)
chain: MALLKVKFDQKKRVKLAQGLWLMNWFSVLAGIIIFSLGLFLKIELRKRSDVMNNSESHFVPNSLIGMGVLSCVFNSLAGKICYDALDPAKYARWKPWLKPYLAICVLFNIILFLVALCCFLLRGSLENTLGQGLKNGMKYYRDTDTPGRCFMKKTIDMLQIEFKCCGNNGFRDWFEIQWISNRYLDFSSKEVKDRIKSNVDGRYLVDGVPFSCCNPSSPRPCIQYQITNNSAHYSYDHQTEELNLWVRGCRAALLSYYSSLMNSMGVVTLLIWLFEVTITIGLRYLQTSLDGVSNPEESESESQGWLLERSVPETWKAFLESVKKLGKGNQVEAEGADAGQAPEAG

binding [3]: binds
B7: N-terminally citrine-tagged per^WT expressed in mouse rods (protein, UniProt P23942 1-346)
chain: MALLKVKFDQKKRVKLAQGLWLMNWFSVLAGIIIFSLGLFLKIELRKRSDVMNNSESHFVPNSLIGMGVLSCVFNSLAGKICYDALDPAKYARWKPWLKPYLAICVLFNIILFLVALCCFLLRGSLENTLGQGLKNGMKYYRDTDTPGRCFMKKTIDMLQIEFKCCGNNGFRDWFEIQWISNRYLDFSSKEVKDRIKSNVDGRYLVDGVPFSCCNPSSPRPCIQYQITNNSAHYSYDHQTEELNLWVRGCRAALLSYYSSLMNSMGVVTLLIWLFEVTITIGLRYLQTSLDGVSNPEESESESQGWLLERSVPETWKAFLESVKKLGKGNQVEAEGADAGQAPEAG

binding [5]: binds
binding [6]: binds
B8: C-terminally myc- or flag-tagged per^C214S (SDGC construct) (natural protein, human, UniProt P23942 1-346, looked up)
chain: MALLKVKFDQKKRVKLAQGLWLMNWFSVLAGIIIFSLGLFLKIELRKRSDVMNNSESHFVPNSLIGMGVLSCVFNSLAGKICYDALDPAKYARWKPWLKPYLAICVLFNIILFLVALCCFLLRGSLENTLGQGLKNGMKYYRDTDTPGRCFMKKTIDMLQIEFKCCGNNGFRDWFEIQWISNRYLDFSSKEVKDRIKSNVDGRYLVDGVPFSCSNPSSPRPCIQYQITNNSAHYSYDHQTEELNLWVRGCRAALLSYYSSLMNSMGVVTLLIWLFEVTITIGLRYLQTSLDGVSNPEESESESQGWLLERSVPETWKAFLESVKKLGKGNQVEAEGADAGQAPEAG
notes: peripherin-2 (PRPH2), human, adRP-linked mutant C214S; also called per^C214S only; per^MT; source: HEK293T, transiently transfected, in lysate (0.5% Triton X-100)

More lines, now with the values behind:

B1: N-terminally citrine-tagged per^P210L (peripherin-2 P210L) (protein, UniProt P23942 1-346)
chain: MALLKVKFDQKKRVKLAQGLWLMNWFSVLAGIIIFSLGLFLKIELRKRSDVMNNSESHFVPNSLIGMGVLSCVFNSLAGKICYDALDPAKYARWKPWLKPYLAICVLFNIILFLVALCCFLLRGSLENTLGQGLKNGMKYYRDTDTPGRCFMKKTIDMLQIEFKCCGNNGFRDWFEIQWISNRYLDFSSKEVKDRIKSNVDGRYLVDGVLFSCCNPSSPRPCIQYQITNNSAHYSYDHQTEELNLWVRGCRAALLSYYSSLMNSMGVVTLLIWLFEVTITIGLRYLQTSLDGVSNPEESESESQGWLLERSVPETWKAFLESVKKLGKGNQVEAEGADAGQAPEAG
binding [1]: binds
binding [2]: binds

B2: N-terminally citrine-tagged per^P210L expressed in mouse rods (protein, UniProt P23942 1-346)
chain: MALLKVKFDQKKRVKLAQGLWLMNWFSVLAGIIIFSLGLFLKIELRKRSDVMNNSESHFVPNSLIGMGVLSCVFNSLAGKICYDALDPAKYARWKPWLKPYLAICVLFNIILFLVALCCFLLRGSLENTLGQGLKNGMKYYRDTDTPGRCFMKKTIDMLQIEFKCCGNNGFRDWFEIQWISNRYLDFSSKEVKDRIKSNVDGRYLVDGVLFSCCNPSSPRPCIQYQITNNSAHYSYDHQTEELNLWVRGCRAALLSYYSSLMNSMGVVTLLIWLFEVTITIGLRYLQTSLDGVSNPEESESESQGWLLERSVPETWKAFLESVKKLGKGNQVEAEGADAGQAPEAG
binding [3]: binds

B4: N-terminally citrine-tagged per^C214S (peripherin-2 C214S) (protein, UniProt P23942 1-346)
chain: MALLKVKFDQKKRVKLAQGLWLMNWFSVLAGIIIFSLGLFLKIELRKRSDVMNNSESHFVPNSLIGMGVLSCVFNSLAGKICYDALDPAKYARWKPWLKPYLAICVLFNIILFLVALCCFLLRGSLENTLGQGLKNGMKYYRDTDTPGRCFMKKTIDMLQIEFKCCGNNGFRDWFEIQWISNRYLDFSSKEVKDRIKSNVDGRYLVDGVPFSCSNPSSPRPCIQYQITNNSAHYSYDHQTEELNLWVRGCRAALLSYYSSLMNSMGVVTLLIWLFEVTITIGLRYLQTSLDGVSNPEESESESQGWLLERSVPETWKAFLESVKKLGKGNQVEAEGADAGQAPEAG
binding [1]: binds
binding [2]: binds

B5: N-terminally citrine-tagged per^C214S expressed in mouse rods (protein, UniProt P23942 1-346)
chain: MALLKVKFDQKKRVKLAQGLWLMNWFSVLAGIIIFSLGLFLKIELRKRSDVMNNSESHFVPNSLIGMGVLSCVFNSLAGKICYDALDPAKYARWKPWLKPYLAICVLFNIILFLVALCCFLLRGSLENTLGQGLKNGMKYYRDTDTPGRCFMKKTIDMLQIEFKCCGNNGFRDWFEIQWISNRYLDFSSKEVKDRIKSNVDGRYLVDGVPFSCSNPSSPRPCIQYQITNNSAHYSYDHQTEELNLWVRGCRAALLSYYSSLMNSMGVVTLLIWLFEVTITIGLRYLQTSLDGVSNPEESESESQGWLLERSVPETWKAFLESVKKLGKGNQVEAEGADAGQAPEAG
binding [3]: binds

B6: C-terminally myc- or flag-tagged per^P210L (SDGC construct) (protein, UniProt P23942 1-346)
chain: MALLKVKFDQKKRVKLAQGLWLMNWFSVLAGIIIFSLGLFLKIELRKRSDVMNNSESHFVPNSLIGMGVLSCVFNSLAGKICYDALDPAKYARWKPWLKPYLAICVLFNIILFLVALCCFLLRGSLENTLGQGLKNGMKYYRDTDTPGRCFMKKTIDMLQIEFKCCGNNGFRDWFEIQWISNRYLDFSSKEVKDRIKSNVDGRYLVDGVLFSCCNPSSPRPCIQYQITNNSAHYSYDHQTEELNLWVRGCRAALLSYYSSLMNSMGVVTLLIWLFEVTITIGLRYLQTSLDGVSNPEESESESQGWLLERSVPETWKAFLESVKKLGKGNQVEAEGADAGQAPEAG
binding [5]: binds
binding [6]: binds
